Here are results for one substance from paper doi:10.1101/2020.02.27.968800.

The target in the experiment is PuBZR1-His (pear (Pyrus ussuriensis)). Briefly: pull-down.

These are yes or no findings as the source states them, for the method shown. Binding can be weak; no strength is given.

Regarding “PuACO1-GST (from UniProt A0A4D5XEA0) (enzyme)”, the binding result was “binds”.
